Data on twelve compounds can be found in patent US11592453B2, “Personalized metabolomic profiling of specialized pro-resolving mediators” (THE BRIGHAM AND WOMEN'S HOSPITAL, INC., priority 2016, dated 2023).

This data set relates to prostaglandin, thromboxane and SPM production in human whole blood. The data set is described as follows: LM metabololipidomics of human whole blood during coagulation in the presence of indomethacin. The format is cell-based. To be noted: mean of six donors; for LM concentration Avg, Indomethacin t = 0 h: 0 h after coagulation in the presence of indomethacin; for LM concentration Avg, Indomethacin t = 0.25 h: 0.25 h after coagulation in the presence of indomethacin; for LM concentration Avg, Indomethacin t = 0.5 h: 0.5 h after coagulation in the presence of indomethacin; for LM concentration Avg, Indomethacin t = 1 h: 1 h after coagulation in the presence of indomethacin; for LM concentration Avg, Indomethacin t = 3 h: 3 h after coagulation in the presence of indomethacin; for LM concentration Avg, Indomethacin t = 6 h: 6 h after coagulation in the presence of indomethacin; for LM concentration Avg, Indomethacin t = 24 h: 24 h after coagulation in the presence of indomethacin. As to the method: FIG. 8 illustrates SPM formation in human blood clots being regulated by lipoxygenase activity. (A and B) Freshly drawn human peripheral blood (4 ml) was placed in silicone-coated tubes at 37° C. for 24 hours and coagulation was stopped by snap-freezing before LC-MS/MS analysis was performed. Concentrations of total SPMs, prostaglandins, and thromboxanes after 24 hours of coagulation (Coag.) in the presence or absence of (A) 100 μM indomethacin (Indo.) (n=six individual donors), (B) 500 nM celecoxib (CLX) or 20 μM BAI (n=three individual donors). Data are means±SEM; *P<0.05 for +BAI vs. Coag; ****P<0.0001 for +Indo vs. Coag. using ratio t-test.
Human whole blood was transferred in 4-ml aliquots to negatively charged, silicone-coated 10-ml tubes (BD) without anticoagulant. For experiments with heparin, the heparinized blood was placed in 15-ml polypropylene tubes before incubation at 37° C. For LM profiling at designated times, all samples were immediately subjected to a workup procedure by which whole blood was snap-frozen in a dry ice/isopropanol bath and were returned to room temperature (×3 cycles) before undergoing centrifugation at 100,000 g at 4° C. Supernatants (and clots for select experiments; see FIG. 6) were collected and were subjected to LC-MS/MS LM metabololipidomics.
To obtain a complete blood profile of eicosanoids and SPMs each sample was subjected to a procedure involving snap-freezing of whole blood that was then thawed to room temperature three times and centrifuged at 100,000 g at 4 °C for 30 min before undergoing solid-phase extraction (SPE). Internal standards including d8-5-HETE, d5-RvD2, d5-LXA4, d4-LTB4, and d4-PGE2 (500 pg each; Cayman Chemical) were added together with four volumes of methanol to facilitate protein precipitation. […] Before elution, LM bound to the SPE matrix were neutralized with ddH2O. Methyl formate fractions from the SPE were brought to dryness under a gentle stream of nitrogen and resuspended in 1:1 methanol:water before injection into a liquid chromatography-tandem mass spectrometry system consisting of a QTrap 5500 (AB Sciex) equipped with a Shimadzu LC-20AD HPLC (Tokyo, Japan). A Poroshell 120 EC-18 column (100 mm×4.6 mm×2.7 μm; Agilent Technologies) was kept in a column oven maintained at 50° C., and lipid mediators (LMs) were eluted in a gradient of methanol/water/acetic acid from 55:45:0.01 (v/v/v) to 100:0:0.01 at a flow rate of 0.5 ml/min. To monitor and quantify the amounts of lipid mediators of interest, multiple reaction monitoring (MRM) was used with MS/MS matching signature ion fragments for each molecule (at least six diagnostic ions; ˜0.1 pg limits of detection as described previously (15)]. PCA was performed as described previously (15) with SIMCA software, version 13.0.3. Calibration curves were obtained daily from authentic (nonsynthetic) standards and matrix suppression for each targeted LM in snap-frozen blood, and supernatants determined and used for recovery and quantitation.

On to `CCC(O)/C=C/C=C\C/C=C\C/C=C\C/C=C\CCCC(=O)O` (stereo not drawn) [18-HEPE], for which the “LM concentration Avg, Indomethacin t = 0 h” value turned out to be 39.8 pg/mL; the “LM concentration Avg, Indomethacin t = 0.25 h” value worked out at 64.4 pg/mL; the “LM concentration Avg, Indomethacin t = 0.5 h” value amounted to 85.1 pg/mL; the “LM concentration Avg, Indomethacin t = 1 h” value turned out to be 103.7 pg/mL. Further, the “LM concentration Avg, Indomethacin t = 3 h” value turned out to be 301.2 pg/mL; the “LM concentration Avg, Indomethacin t = 6 h” value came to 393.8 pg/mL; the “LM concentration Avg, Indomethacin t = 24 h” value is 721.1 pg/mL.
Regarding `O=C(O)CCC[C@H](O)\C=C/C=C/C=C/[C@H](O)C/C=C\CCCCCO` [20-OH-LTB4], the “LM concentration Avg, Indomethacin t = 0 h” value came out at 0.2 pg/mL; the “LM concentration Avg, Indomethacin t = 0.25 h” value worked out at 0.7 pg/mL; the “LM concentration Avg, Indomethacin t = 0.5 h” value was 2.6 pg/mL; the “LM concentration Avg, Indomethacin t = 1 h” value was determined as 8.2 pg/mL. Besides, the “LM concentration Avg, Indomethacin t = 3 h” value was determined as 14.0 pg/mL; the “LM concentration Avg, Indomethacin t = 6 h” value was determined as 20.2 pg/mL; the “LM concentration Avg, Indomethacin t = 24 h” value came out at 21.3 pg/mL.
On to `CCCCC/C=C\C/C=C\C/C=C\C/C=C\CCCC(=O)O` [AA, arachidonic acid], for which the “LM concentration Avg, Indomethacin t = 0 h” value was found to be 6677.3 pg/mL; the “LM concentration Avg, Indomethacin t = 0.25 h” value was determined as 13096.4 pg/mL; the “LM concentration Avg, Indomethacin t = 0.5 h” value was found to be 17559.7 pg/mL; the “LM concentration Avg, Indomethacin t = 1 h” value was determined as 20436.6 pg/mL. Further, the “LM concentration Avg, Indomethacin t = 3 h” value is 25625.0 pg/mL; the “LM concentration Avg, Indomethacin t = 6 h” value worked out at 26651.4 pg/mL; the “LM concentration Avg, Indomethacin t = 24 h” value was determined as 31800.5 pg/mL.
For `CCCCC[C@@H](O)/C=C/C=C\C=C\C=C\[C@@H](O)[C@@H](O)CCCC(=O)O` [AT-LX44, 15-epi-lipoxin A4 (aspirin-triggered lipoxin A4)], the “LM concentration Avg, Indomethacin t = 0 h” value was determined as 1.3 pg/mL; the “LM concentration Avg, Indomethacin t = 0.25 h” value stood at 1.7 pg/mL; the “LM concentration Avg, Indomethacin t = 0.5 h” value worked out at 2.7 pg/mL; the “LM concentration Avg, Indomethacin t = 1 h” value stood at 2.2 pg/mL. The “LM concentration Avg, Indomethacin t = 3 h” value was found to be 4.0 pg/mL; the “LM concentration Avg, Indomethacin t = 6 h” value is 5.4 pg/mL; the “LM concentration Avg, Indomethacin t = 24 h” value came to 11.4 pg/mL.
Take `CCCCC/C=C\C[C@@H](O)/C=C/C=C/C=C\[C@@H](O)CCCC(=O)O` [LTB4, leukotriene B4, (5S, 12R-dihydroxy-eicosa-6Z, 8E, 10E, 14Z-tetraenoic acid)]: the “LM concentration Avg, Indomethacin t = 0 h” value came to 1.2 pg/mL; the “LM concentration Avg, Indomethacin t = 0.25 h” value turned out to be 6.8 pg/mL; the “LM concentration Avg, Indomethacin t = 0.5 h” value was determined as 47.8 pg/mL; the “LM concentration Avg, Indomethacin t = 1 h” value was 75.5 pg/mL. Moreover, the “LM concentration Avg, Indomethacin t = 3 h” value came to 110.2 pg/mL; the “LM concentration Avg, Indomethacin t = 6 h” value turned out to be 95.1 pg/mL; the “LM concentration Avg, Indomethacin t = 24 h” value came to 51.0 pg/mL.
`CCCCC[C@H](O)/C=C/C=C\C=C\C=C\[C@@H](O)[C@@H](O)CCCC(=O)O` [LXA4, lipoxin A4 (5S, 6R, 15S-trihydroxy-eicosa-7E, 9E, 11Z, 13E-tetraenoic acid)]: the “LM concentration Avg, Indomethacin t = 0 h” value was “— ((—) denotes concentrations <0.1 pg/ml)”; the “LM concentration Avg, Indomethacin t = 0.25 h” value is listed as “— ((—) denotes concentrations <0.1 pg/ml)”; the “LM concentration Avg, Indomethacin t = 0.5 h” value is “— ((—) denotes concentrations <0.1 pg/ml)”; the “LM concentration Avg, Indomethacin t = 1 h” value was “— ((—) denotes concentrations <0.1 pg/ml)”. Moreover, the “LM concentration Avg, Indomethacin t = 3 h” value is “— ((—) denotes concentrations <0.1 pg/ml)”; the “LM concentration Avg, Indomethacin t = 6 h” value is “— ((—) denotes concentrations <0.1 pg/ml)”; the “LM concentration Avg, Indomethacin t = 24 h” value is given as “— ((—) denotes concentrations <0.1 pg/ml)”.
For the compound `CC/C=C\C[C@H](O)\C=C/C=C/C=C/[C@H](O)C/C=C\C/C=C\CCC(=O)O` [PD1, protectin D1 (10R, 17S-dihydroxy-docosa-4Z, 7Z, 11E, 13E, 15Z, 19Z-hexaenoic acid)], the “LM concentration Avg, Indomethacin t = 0 h” value turned out to be 0.5 pg/mL; the “LM concentration Avg, Indomethacin t = 0.25 h” value turned out to be 0.5 pg/mL; the “LM concentration Avg, Indomethacin t = 0.5 h” value is 0.6 pg/mL; the “LM concentration Avg, Indomethacin t = 1 h” value amounted to 0.9 pg/mL. In addition, the “LM concentration Avg, Indomethacin t = 3 h” value is 0.6 pg/mL; the “LM concentration Avg, Indomethacin t = 6 h” value stood at 0.8 pg/mL; the “LM concentration Avg, Indomethacin t = 24 h” value was 1.6 pg/mL.
For the compound `CCCCC[C@H](O)/C=C/[C@H]1C(=O)C[C@H](O)[C@@H]1C/C=C\CCCC(=O)O` [PGD2, 11-oxo-9α, 15S-dihydroxy-prosta-5Z, 13E-dien-1-oic acid], the “LM concentration Avg, Indomethacin t = 0 h” value came out at 0.5 pg/mL; the “LM concentration Avg, Indomethacin t = 0.25 h” value was determined as 0.4 pg/mL; the “LM concentration Avg, Indomethacin t = 0.5 h” value stood at 0.7 pg/mL; the “LM concentration Avg, Indomethacin t = 1 h” value is 0.7 pg/mL. The “LM concentration Avg, Indomethacin t = 3 h” value came out at 3.0 pg/mL; the “LM concentration Avg, Indomethacin t = 6 h” value came to 5.3 pg/mL; the “LM concentration Avg, Indomethacin t = 24 h” value came out at 7.1 pg/mL.
As to `CCCCC[C@H](O)/C=C/[C@H]1[C@H](O)CC(=O)[C@@H]1C/C=C\CCCC(=O)O` [PGE2, 9-oxo-11α, 15S-dihydroxy-prosta-5Z, 13E-dien-1-oic acid], the “LM concentration Avg, Indomethacin t = 0 h” value turned out to be 0.3 pg/mL; the “LM concentration Avg, Indomethacin t = 0.25 h” value is 0.6 pg/mL; the “LM concentration Avg, Indomethacin t = 0.5 h” value is 0.7 pg/mL; the “LM concentration Avg, Indomethacin t = 1 h” value was 0.9 pg/mL. In addition, the “LM concentration Avg, Indomethacin t = 3 h” value turned out to be 1.2 pg/mL; the “LM concentration Avg, Indomethacin t = 6 h” value turned out to be 1.8 pg/mL; the “LM concentration Avg, Indomethacin t = 24 h” value came to 2.6 pg/mL.
In the case of `CCCCC[C@H](O)/C=C/[C@@H]1[C@@H](C/C=C\CCCC(=O)O)[C@@H](O)C[C@H]1O` [PGF2a, 9α, 11α, 15S-trihydroxy-prosta-5Z, 13E-dienoic acid], the “LM concentration Avg, Indomethacin t = 0 h” value is listed as “— ((—) denotes concentrations <0.1 pg/ml)”; the “LM concentration Avg, Indomethacin t = 0.25 h” value amounted to 0.3 pg/mL; the “LM concentration Avg, Indomethacin t = 0.5 h” value came out at 0.3 pg/mL; the “LM concentration Avg, Indomethacin t = 1 h” value stood at 0.2 pg/mL. The “LM concentration Avg, Indomethacin t = 3 h” value worked out at 0.5 pg/mL; the “LM concentration Avg, Indomethacin t = 6 h” value was 0.7 pg/mL; the “LM concentration Avg, Indomethacin t = 24 h” value was 1.6 pg/mL.
Take `CC/C=C\C[C@H](O)[C@H](O)/C=C/C=C/C=C\C=C\[C@@H](O)C/C=C\CCC(=O)O` [RvD2, Resolvin D2 (7S, 16R, 17S-trihydroxy-docosa-4Z, 8E, 10Z, 12E, 14E, 19Z-hexaenoic acid)]: the “LM concentration Avg, Indomethacin t = 0 h” value is given as “— ((—) denotes concentrations <0.1 pg/ml)”; the “LM concentration Avg, Indomethacin t = 0.25 h” value is “— ((—) denotes concentrations <0.1 pg/ml)”; the “LM concentration Avg, Indomethacin t = 0.5 h” value was “— ((—) denotes concentrations <0.1 pg/ml)”; the “LM concentration Avg, Indomethacin t = 1 h” value is on record as “— ((—) denotes concentrations <0.1 pg/ml)”. Also, the “LM concentration Avg, Indomethacin t = 3 h” value was “— ((—) denotes concentrations <0.1 pg/ml)”; the “LM concentration Avg, Indomethacin t = 6 h” value is reported as “— ((—) denotes concentrations <0.1 pg/ml)”; the “LM concentration Avg, Indomethacin t = 24 h” value was “— ((—) denotes concentrations <0.1 pg/ml)”.
For `CC[C@@H](O)/C=C/C=C\C/C=C\C/C=C\C=C\[C@@H](O)CCCC(=O)O` [RvE2, Resolvin E2 (5S, 18R-dihydroxy-eicosa-6E, 8Z, 11Z, 14Z, 16E-pentaenoic acid)], the “LM concentration Avg, Indomethacin t = 0 h” value is “— ((—) denotes concentrations <0.1 pg/ml)”; the “LM concentration Avg, Indomethacin t = 0.25 h” value was “— ((—) denotes concentrations <0.1 pg/ml)”; the “LM concentration Avg, Indomethacin t = 0.5 h” value is listed as “— ((—) denotes concentrations <0.1 pg/ml)”; the “LM concentration Avg, Indomethacin t = 1 h” value is reported as “— ((—) denotes concentrations <0.1 pg/ml)”. In addition, the “LM concentration Avg, Indomethacin t = 3 h” value is reported as “— ((—) denotes concentrations <0.1 pg/ml)”; the “LM concentration Avg, Indomethacin t = 6 h” value is “— ((—) denotes concentrations <0.1 pg/ml)”; the “LM concentration Avg, Indomethacin t = 24 h” value is given as “— ((—) denotes concentrations <0.1 pg/ml)”.
